These are yes or no findings as the source states them, for the method shown. Binding seen in cells or lysates may run through a third protein. Some binding calls cover weakened binding; strength is not graded here.

The chains behind the UniProt entries cited, without tags or fusion partners. Residues count along the entry.
UniProt O00168, residues 21-92: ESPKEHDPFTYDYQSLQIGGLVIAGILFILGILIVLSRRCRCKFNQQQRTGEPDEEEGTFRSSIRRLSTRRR

The experiment concerns the target mCyRFP1-α2 (human Na+/K+-ATPase α2 subunit fused to mCyRFP1) (human) (UniProt P50993). As to the kind of experiment: FRET or BRET. (In general: Bioluminescence resonance energy transfer reports proximity on the nanometre scale.)
As for “mCyRFP1-α3 (human Na+/K+-ATPase α3 subunit fused to mCyRFP1) (from UniProt P13637 1-1013)”, the binding result is reported as “binds”.

For “mCyRFP1-α2 (human Na+/K+-ATPase α2 subunit fused to mCyRFP1) (from UniProt P50993 1-1020)”, the binding entry is “binds”.

For the substance “PLM-mMaroon1 (human phospholemman with mMaroon1 at its C-terminus) (from UniProt O00168 21-92)”, the binding result is “binds”.

The values are drawn from article doi:10.1101/2021.10.12.464104.
